Values from PubChem BioAssay AID686938 (Drosophila RNAi Screening Center, 2013).
Aim: 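Looking for CRAC channel components and the factors controlling them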 (primary screen). Cells: Drosophila S2R+ cells. Reagents: long dsRNA against Drosophila genes, about 0.25 µg dsRNA per well, roughly 10,000 cells. Duration: 5 days of knock-down before the calcium assay. Treatment: thapsigargin (SERCA pump blocker) to empty calcium stores; entry signal taken 4 min after adding it. Read-out: 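Duplicate raw fluo-4 intensities per well from a plate reader, at rest and four minutes after thapsigargin emptied calcium stores; entry-to-rest ratio filled for only some wells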. Reading the numbers: calcium entry signal: higher = stronger calcium signal after store depletion; entry to resting ratio: higher = more calcium entry relative to resting level; resting calcium signal: higher = higher resting calcium signal. Rule for the call: 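Called when the plate z-score of the entry-to-rest ratio, mean of duplicates, falls below −3; wells with low overall dye signal (Fmax z below −2) or more than five off-targets excluded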. Calls: active = strongly reduced calcium entry; inactive = no strong reduction.
In all, the deposit lists about 23,000 reagents; shown is a random part of those that have a named target and a result. Over the whole deposit, 75 (0.33%) got an active call. 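Raw plate signals without normalisation; calls rest on plate z-scores that were not deposited; ratio present for only 364 wells.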 Entries without a mark were called inactive. Reagents against one gene are numbered here. The record does not give: the dose of the treatment.

The first 2 entries as a preview:
predicted target | dsRNA no. | calcium entry signal, replicate 1 (fluorescence units) | calcium entry signal, replicate 2 (fluorescence units) | entry to resting ratio | resting calcium signal, replicate 1 (fluorescence units) | resting calcium signal, replicate 2 (fluorescence units)
egl (egalitarian) | 1 | 4.07e7 | 4.84e7 | – | 2.11e7 | 2.20e7
CG9449 | 1 | 2.92e7 | 4.53e7 | – | 1.37e7 | 1.97e7

Main list, from the first entry:
predicted target | dsRNA no. | calcium entry signal, replicate 1 (fluorescence units) | calcium entry signal, replicate 2 (fluorescence units) | entry to resting ratio | resting calcium signal, replicate 1 (fluorescence units) | resting calcium signal, replicate 2 (fluorescence units)
egl (egalitarian) | 1 | 4.07e7 | 4.84e7 | – | 2.11e7 | 2.20e7
CG9449 | 1 | 2.92e7 | 4.53e7 | – | 1.37e7 | 1.97e7
Sodq (Sodesque) | 1 | 3.58e7 | 5.47e7 | – | 1.90e7 | 2.55e7
CG31213 | 1 | 2.64e7 | 3.34e7 | – | 3.95e7 | 1.57e7
CG31213 | 2 | 2.52e7 | 3.49e7 | – | 3.32e7 | 1.64e7
CG14787 | 1 | 5.57e7 | 4.88e7 | 2.1 | 2.70e7 | 2.06e7
mRpS10 (mitochondrial ribosomal protein S10) | 1 | 3.77e7 | 4.72e7 | – | 1.71e7 | 7.53e7
CG12951 | 1 | 2.16e7 | 2.17e7 | – | 1.06e7 | 1.21e7
Phyhd1 (Phytanoyl-CoA dioxygenase domain containing 1) | 1 | 3.02e7 | 3.76e7 | – | 1.45e7 | 1.86e7
Rab32 | 1 | 2.29e7 | 3.54e7 | – | 1.23e7 | 1.62e7
Rab32 | 2 | 2.63e7 | 1.78e7 | – | 1.10e7 | 8.86e6
vvl (ventral veins lacking) | 1 | 3.95e7 | 5.18e7 | – | 1.85e7 | 2.36e7
CG17564 | 1 | 4.47e7 | 5.03e7 | – | 2.03e7 | 2.01e7
CG13044 | 1 | 5.03e7 | 5.94e7 | – | 2.07e7 | 2.58e7
CG34310 | 1 | 4.45e7 | 3.78e7 | – | 2.21e7 | 1.67e7
CCHa1 (CCHamide-1) | 1 | 3.07e7 | 4.69e7 | – | 1.54e7 | 6.22e7
Hsp68 (Heat shock protein 68) | 1 | 5.76e7 | 5.50e7 | – | 2.66e7 | 2.20e7
ttm2 (tiny tim 2) | 1 | 4.18e7 | 5.18e7 | – | 2.09e7 | 2.16e7
CG12868 | 1 | 2.34e7 | 3.71e7 | – | 1.21e7 | 1.59e7
Fbxl7 (F-box and leucine-rich repeat protein 7) | 1 | 3.90e7 | 3.37e7 | – | 1.76e7 | 4.90e7
EAChm (Enhancer of Acetyltransferase Chameau) | 1 | 3.38e7 | 5.24e7 | – | 1.71e7 | 2.01e7
CG6893 | 1 | 3.78e7 | 4.73e7 | – | 1.87e7 | 1.62e7
CG3119 | 1 | 3.08e7 | 3.88e7 | – | 1.56e7 | 1.66e7
CG11267 | 1 | 2.11e7 | 2.93e7 | – | 1.12e7 | 1.19e7
mRpS16 (mitochondrial ribosomal protein S16) | 1 | 3.56e7 | 3.93e7 | – | 1.91e7 | 1.65e7
RpL7-like (Ribosomal protein L7-like) | 1 | 1.44e7 | 2.91e7 | – | 9.51e6 | 1.53e7
CG33463 | 1 | 4.50e7 | 3.81e7 | – | 2.46e7 | 1.81e7
CG2061 | 1 | 2.47e7 | 2.75e7 | – | 1.14e7 | 1.21e7
CG13713 | 1 | 2.63e7 | 3.35e7 | – | 1.21e7 | 1.36e7
Vha100-2 (Vacuolar H[+] ATPase 100kD subunit 2) | 1 | 5.44e7 | 4.35e7 | – | 2.41e7 | 1.83e7
smg (smaug) | 1 | 3.95e7 | 2.71e7 | – | 2.91e7 | 1.17e7
SmydA-1 (SET and MYND domain containing, arthropod-specific, member 1) | 1 | 3.88e7 | 4.50e7 | – | 1.70e7 | 2.02e7
alpha-Est6 (alpha-Esterase-6) | 1 | 3.03e7 | 3.46e7 | – | 1.24e7 | 1.53e7
CG13315 | 1 | 3.36e7 | 3.95e7 | – | 1.63e7 | 1.60e7
CG13599 | 1 | 4.45e7 | 4.17e7 | – | 2.13e7 | 1.78e7
CG17233 | 1 | 2.98e7 | 2.25e7 | – | 2.50e7 | 1.29e7
Spase25 (Spase 25-subunit) | 1 | 2.93e7 | 3.21e7 | – | 1.43e7 | 1.37e7
CG14362 | 1 | 3.31e7 | 4.67e7 | – | 1.63e7 | 7.77e7
Delta | 1 | 3.62e7 | 4.03e7 | – | 5.52e7 | 1.93e7
CG42758 | 1 | 4.48e7 | 7.24e7 | – | 2.03e7 | 2.86e7
